Measurements as given in publication doi:10.1101/789222.
Substitutions are numbered along the chain they refer to. No constants are given. Whether binding was seen depends on the method and setting. Binding seen in cells or lysates may run through a third protein. A result given as binding can be weak or reduced; the word gives no strength. For part of these data: Where a sequence is shown, tags or fusion partners need not be part of it.

Assays:
Experiment in all cases: co-IP
MYC-PER2^K736R (human) = biological target: T1, MYC-PER2^K736R (human) (UniProt O15055)
T1 sequence: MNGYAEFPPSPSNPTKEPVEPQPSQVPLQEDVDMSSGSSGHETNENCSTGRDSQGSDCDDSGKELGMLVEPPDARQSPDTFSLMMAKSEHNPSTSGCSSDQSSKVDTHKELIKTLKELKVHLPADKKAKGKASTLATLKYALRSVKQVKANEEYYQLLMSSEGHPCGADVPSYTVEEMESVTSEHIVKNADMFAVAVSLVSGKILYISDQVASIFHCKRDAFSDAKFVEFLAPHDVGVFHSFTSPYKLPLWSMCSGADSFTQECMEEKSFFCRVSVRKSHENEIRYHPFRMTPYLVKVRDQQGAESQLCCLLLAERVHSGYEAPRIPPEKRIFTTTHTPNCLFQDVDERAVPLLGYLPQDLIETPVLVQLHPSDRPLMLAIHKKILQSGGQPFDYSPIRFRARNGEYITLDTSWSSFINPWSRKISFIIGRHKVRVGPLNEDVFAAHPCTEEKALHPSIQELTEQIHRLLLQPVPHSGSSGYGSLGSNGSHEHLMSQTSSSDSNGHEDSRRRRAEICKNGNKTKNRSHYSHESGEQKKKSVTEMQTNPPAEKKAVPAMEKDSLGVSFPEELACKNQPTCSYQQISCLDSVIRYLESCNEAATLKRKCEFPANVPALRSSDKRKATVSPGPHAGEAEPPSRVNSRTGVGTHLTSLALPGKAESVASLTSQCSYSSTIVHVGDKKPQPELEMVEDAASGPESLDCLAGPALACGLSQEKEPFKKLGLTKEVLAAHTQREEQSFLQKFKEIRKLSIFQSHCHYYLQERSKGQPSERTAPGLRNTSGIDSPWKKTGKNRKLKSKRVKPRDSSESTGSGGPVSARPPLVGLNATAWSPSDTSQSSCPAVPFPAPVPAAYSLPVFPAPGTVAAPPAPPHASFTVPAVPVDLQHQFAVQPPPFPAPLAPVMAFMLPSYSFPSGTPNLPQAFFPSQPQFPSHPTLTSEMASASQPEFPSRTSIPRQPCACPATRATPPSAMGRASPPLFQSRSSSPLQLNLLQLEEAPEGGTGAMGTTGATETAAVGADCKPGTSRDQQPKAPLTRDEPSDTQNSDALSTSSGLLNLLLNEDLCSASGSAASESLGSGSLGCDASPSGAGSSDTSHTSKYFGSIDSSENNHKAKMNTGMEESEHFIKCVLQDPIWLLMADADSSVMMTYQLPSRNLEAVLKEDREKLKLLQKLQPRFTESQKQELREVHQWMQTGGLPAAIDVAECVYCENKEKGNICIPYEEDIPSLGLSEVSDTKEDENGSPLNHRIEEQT

MYC-PER2^WT (human) = biological target: T2, MYC-PER2^WT (human) (UniProt O15055)
T2 sequence: T1 sequence with R736K

[1] = biological target: T3, Period2 (PER2), endogenous (human (endogenous in U2OS)) (UniProt O15055)
T3 sequence: T1 sequence with R736K

Measured: binding

β-TrCP, endogenous (human (endogenous in U2OS and HEK-293T))
binds: all assays above
